In PMC13311996:
Results are given in words; binding and its absence hold for the method and conditions named. In cells and extracts the contact can be indirect. Some binding calls cover weakened binding; strength is not graded here.

Chains of the proteins cited; added tags and fusions are not shown.
UniProt P01375: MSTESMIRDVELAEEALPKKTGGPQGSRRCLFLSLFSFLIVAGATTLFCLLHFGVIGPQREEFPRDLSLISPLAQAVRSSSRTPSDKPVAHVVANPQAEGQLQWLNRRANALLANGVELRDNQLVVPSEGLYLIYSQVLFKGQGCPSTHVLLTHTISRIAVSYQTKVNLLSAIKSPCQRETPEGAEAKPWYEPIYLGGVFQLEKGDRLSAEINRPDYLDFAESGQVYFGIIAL

Molecular target: TNF (UniProt P01375)
Assay: co-IP; 2000 μg protein lysate (500 μL) with primary antibody (anti-GFP, anti-Flag) overnight at 4°, protein A/G agarose beads, washed 6 times with lysis buffer, western blot; cells and bait not stated

B1: DCAF7 (protein, UniProt P61962 1-342)
chain: MSLHGKRKEIYKYEAPWTVYAMNWSVRPDKRFRLALGSFVEEYNNKVQLVGLDEESSEFICRNTFDHPYPTTKLMWIPDTKGVYPDLLATSGDYLRVWRVGETETRLECLLNNNKNSDFCAPLTSFDWNEVDPYLLGTSSIDTTCTIWGLETGQVLGRVNLVSGHVKTQLIAHDKEVYDIAFSRAGGGRDMFASVGADGSVRMFDLRHLEHSTIIYEDPQHHPLLRLCWNKQDPNYLATMAMDGMEVVILDVRVPCTPVARLNNHRACVNGIAWAPHSSCHICTAADDHQALIWDIQQMPRAIEDPILAYTAEGEINNVQWASTQPDWIAICYNNCLEILRV
**Q.** Which binding does the source give for B1 here?
**A.** binds
